Test results reported in publication PMC10229614 (Scientific Reports, 2023).

System: breast tissue microstructures
Test: Total RNA sequencing of high-risk breast tissue microstructures
Assay type: cell-based, human
Conditions: 5 µM, 24 h, adj P < 0.05, six donors

O=C1C[C@@H](c2ccc(O)cc2)Oc2cc(O)ccc21 [LigF, liquiritigenin]
Number of significantly downregulated differentially expressed genes: 2088 | Number of significantly upregulated differentially expressed genes: 1199
